Some results were stated once for a whole list of compounds, not compound by compound.
How the values were obtained:
[1] = Test D: metabolisation/inactivation of the product in rodent liver microsomes; assay type: in vitro ADME
Description: Metabolisation/Inactivation of the Product
The products are evaluated for their capacity to be inactivated rapidly in vitro. […] The incubation medium is prepared by mixing together the following constituents: NAD (1 mM), glucose 6 phosphate (5 mM), NADP (1 mM), glucose 6 phosphate dehydrogenase (1 IU/ml), bovine serum albumin (1 mg/ml), TRIS (10 mM pH=7.6), MgCl2 (5 mM).
A concentration of 0.5 mg/ml of microsomes (Biopredic) is placed in contact with 10 μM of test product. The mixture is incubated for 1 hour at 37° C. A fraction of the preparation is taken at the initial time, to which is added an equivalent volume of ethanol (quenching of the reaction by precipitation of the proteins). The same operation is repeated after 1 hour of incubation.
The samples obtained are centrifuged at 4000 rpm for 10 minutes, and the supernatant is analysed by LC/MS/MS. The percentage of disappearance of the parent product between T0 and T60 minutes is determined by calculating the areas of the chromatographic peaks.
Potential metabolites M1 and M2 (of the compounds 1 or 2, respectively) are identified, resynthesised and evaluated for their MTP-inhibiting activity.

[2] = tested on: secretion of VLDL; experiment: Test Avivo: duration of action of MTP inhibitors on the secretion of VLDL; assay type: in vivo, fatty fa/fa Zucker rats; details: dose reaching Imax of at least 50%
Description: Determination of the Duration of Action of MTP Inhibitors on the Secretion of VLDL
This test makes it possible to evaluate the kinetics of inhibition of MTP-inhibiting compounds on the secretion of VLDL in fatty fa/fa Zucker rats (10-12 weeks old), which is an animal model characterised by hypersecretion of VLDL. The intensity and duration of inhibition are measured via the triton technique described above over a period ranging up to 8 hours after administration of the products. Since the duration of action of a product depends both of the administered dose and on its intrinsic characteristics, it is determined at a dose of makes it possible to reach a maximum inhibition (Imax) of at least 50% over a significant time interval. The comparison of the profile of duration of action of two compounds that may have different potentials is thus performed at respective doses that allow similar Imax values to be obtained.

For O=C(NC1CCN(Cc2cccnc2)CC1)c1ccccc1-c1ccc(C(F)(F)F)cc1 [Compound 1], the metabolisation/inactivation per hour [1] was “greater than 50 % per hour” and the “duration of action on the secretion of VLDL” value [2] was “less than 8 hours”.

Reference: patent US20090220421A1, “METHOD FOR SCREENING MTP-INHIBITING COMPOUNDS” (priority 2005, published 2009)
